The assay has as its target T1, PirC-mCitrine (Synechocystis sp. PCC 6803) (UniProt P77971).
T1 sequence: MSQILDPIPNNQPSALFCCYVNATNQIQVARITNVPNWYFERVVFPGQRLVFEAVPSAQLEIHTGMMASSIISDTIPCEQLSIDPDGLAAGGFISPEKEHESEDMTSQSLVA
Put plainly: affinity purification with mass spectrometry.

Results are given in words; binding and its absence hold for the method and conditions named. In cells and extracts the contact can be indirect. A yes stands for co-enrichment or nearness to the bait. Other partners may have been found.

B1: CcmP (Slr0169), endogenous (protein, UniProt Q55550 1-213)
chain: MGIELRSYVYLDSLQSQHAAYIGTVASGFLPLPGDCSLWVEVSPGIEINRITDIALKAAVVRPGVLFVERLYGLLEIHASNQGEVRAAGQAILAYIGAKASDCIKPKVVSSQIIRNIDAYQTQLINRNRRGHMLLAGQTLFVLEVQPAAYASLAANEAEKSASINILQVSSIGSFGRLYLGGEERDIKAGARAAIAAIENAPGKVPTLEGKNE
With B1, the binding entry is “binds”.

B2: 2,3-bisphosphoglycerate-independent phosphoglycerate mutase (PGAM, Slr1945), endogenous (enzyme, UniProt P74507 1-532)
chain: MAEAPIAPVVLVILDGWGYRPDTRANAIAQANTPIMDSLIAAYPNTLVNTSGKDVGLPKGQMGNSEVGHLNLGAGRVVPQELVRISDAIEDGTFFDNQALIEVCQRVRDRRGKLHLIGLCSDGGVHSHIDHLLGLIDLAKLQGISQLCIHAITDGRDTPTNEGAHFVQQIQAHLEKIGLGRIVSVSGRYYALDRDRRWDRVEKAYRVMTEDGVGDGRSAAQVIKDYYASDITDEFIPPTRIGAGAIASGDGVIFYNFRPDRARQLCYALVNPSFDGFPRERIQPLDFVTFTQYDPALPVVVAFEPQNLNNILGEIISRQGMKQFRTAETEKYPHVTYFFNGGLEQPFAGEDRELIQSPMVSTYDKAPQMSAKAVTDAVCRAMEKGIYSLVVVNYANPDMVGHTGKLKEAIQAIETVDLNLGRLLASAAKVGGTVLITADHGNAEYMSDESGNPWTAHTTNPVPFILVEGEGRKIPGHGGEVKLREGGKLADIAPTILDILQLPVPAEMTGKTLIDQPLVEIKANRTPVNLSR
In the case of B2, the binding result is reported as “binds”.

The values above are taken from article doi:10.1101/2020.09.11.292599.
